Laboratory results from PMC5432348.
These are yes or no findings as the source states them, for the method shown. Binding seen in cells or lysates may run through a third protein. A yes stands for co-enrichment or nearness to the bait. Other partners may have been found.

T1: tetraspanin Co-029/tspan8, P19075
T1 chain: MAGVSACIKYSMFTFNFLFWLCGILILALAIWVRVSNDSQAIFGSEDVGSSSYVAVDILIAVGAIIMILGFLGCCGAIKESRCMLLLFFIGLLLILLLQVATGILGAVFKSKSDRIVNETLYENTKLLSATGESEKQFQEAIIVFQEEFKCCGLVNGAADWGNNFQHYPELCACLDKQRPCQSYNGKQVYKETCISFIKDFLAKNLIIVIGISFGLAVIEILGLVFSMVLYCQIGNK

T2: CD9 (human (endogenous in Isreco1)), P21926
T2 chain: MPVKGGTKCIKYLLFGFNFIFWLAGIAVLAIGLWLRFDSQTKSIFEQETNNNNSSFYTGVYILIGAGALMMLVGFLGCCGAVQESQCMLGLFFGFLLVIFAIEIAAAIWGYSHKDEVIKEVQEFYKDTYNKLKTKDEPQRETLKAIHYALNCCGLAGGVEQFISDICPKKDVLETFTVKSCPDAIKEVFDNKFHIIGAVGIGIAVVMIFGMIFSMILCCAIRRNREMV


Columns and labels:
[1] = biological target: T1, tetraspanin Co-029/tspan8, P19075; assay: affinity purification with mass spectrometry; 1% Brij97 lysates of Isreco1 and Is1-Co029 cells cultured on collagen I (also on tissue culture plastic); beads coupled to mAb Ts9 (CD9) or TS29.2 (Co-029); SDS-PAGE, in-gel trypsin digestion, LC-MS/MS; details: remark: other sources report otherwise
[2] = biological target: T2, CD9 (human (endogenous in Isreco1)), …; assay: as above; details: remark: other sources report otherwise

binding [1] | binding [2] | Binder
binds | – | STX4, Q12846 1-297 (protein) MRDRTHELRQGDDSSDEEDKERVALVVHPGTARLGSPDEEFFHKVRTIRQTIVKLGNKVQELEKQQVTILATPLPEESMKQELQNLRDEIKQLGREIRLQLKAIEPQKEEADENYNSVNTRMRKTQHGVLSQQFVELINKCNSMQSEYREKNVERIRRQLKITNAGMVSDEELEQMLDSGQSEVFVSNILKDTQVTRQALNEISARHSEIQQLERSIRELHDIFTFLATEVEMQGEMINRIEKNILSSADYVERGQEHVKTALENQKKARKKKVLIAICVSITVVLLAVIIGVTVVG
– | binds | ADAM10, O14672 214-748 (protein) TTSAEKNTCQLYIQTDHLFFKYYGTREAVIAQISSHVKAIDTIYQTTDFSGIRNISFMVKRIRINTTADEKDPTNPFRFPNIGVEKFLELNSEQNHDDYCLAYVFTDRDFDDGVLGLAWVGAPSGSSGGICEKSKLYSDGKKKSLNTGIITVQNYGSHVPPKVSHITFAHEVGHNFGSPHDSGTECTPGESKNLGQKENGNYIMYARATSGDKLNNNKFSLCSIRNISQVLEKKRNNCFVESGQPICGNGMVEQGEECDCGYSDQCKDECCFDANQPEGRKCKLKPGKQCSPSQGPCCTAQCAFKSKSEKCRDDSDCAREGICNGFTALCPASDPKPNFTDCNRHTQVCINGQCAGSICEKYGLEECTCASSDGKDDKELCHVCCMKKMDPSTCASTGSVQWSRHFSGRTITLQPGSPCNDFRGYCDVFMRCRLVDADGPLARLKKAIFSPELYENIAEWIVAHWWAVLLMGIALIMLMAGFIKICSVHTPSSNPKLPPPKPLPGTLKRRRPPQPIQQPQRQRPRESYQMGHMRR
